Data reported in article PMC8961594.

The chains behind the UniProt entries cited, without tags or fusion partners. Where a name states a change or a piece, a line headed by the entry shows the natural chain unless it says otherwise.
UniProt P55085: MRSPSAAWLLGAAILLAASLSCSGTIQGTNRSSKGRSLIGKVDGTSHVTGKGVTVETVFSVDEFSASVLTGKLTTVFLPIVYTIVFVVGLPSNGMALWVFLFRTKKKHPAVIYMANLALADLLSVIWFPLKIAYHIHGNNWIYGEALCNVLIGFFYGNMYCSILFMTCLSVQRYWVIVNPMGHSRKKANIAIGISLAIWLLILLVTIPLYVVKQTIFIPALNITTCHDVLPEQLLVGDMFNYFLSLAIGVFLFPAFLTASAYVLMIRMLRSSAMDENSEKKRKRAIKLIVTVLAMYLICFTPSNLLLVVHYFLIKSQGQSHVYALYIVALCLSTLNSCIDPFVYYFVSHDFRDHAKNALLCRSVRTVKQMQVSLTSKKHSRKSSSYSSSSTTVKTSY
UniProt P06733: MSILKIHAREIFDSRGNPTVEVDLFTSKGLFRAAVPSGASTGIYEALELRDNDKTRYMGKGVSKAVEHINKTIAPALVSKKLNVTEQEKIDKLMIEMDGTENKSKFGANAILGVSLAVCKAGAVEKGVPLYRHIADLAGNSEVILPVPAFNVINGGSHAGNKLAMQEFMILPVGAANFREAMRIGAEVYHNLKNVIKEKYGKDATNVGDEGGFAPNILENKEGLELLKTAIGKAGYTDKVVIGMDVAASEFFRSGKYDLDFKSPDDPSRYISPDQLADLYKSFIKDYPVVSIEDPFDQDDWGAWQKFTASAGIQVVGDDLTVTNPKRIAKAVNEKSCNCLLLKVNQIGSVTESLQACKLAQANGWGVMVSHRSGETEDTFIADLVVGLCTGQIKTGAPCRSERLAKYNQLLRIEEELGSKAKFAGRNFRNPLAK
UniProt Q96CW1: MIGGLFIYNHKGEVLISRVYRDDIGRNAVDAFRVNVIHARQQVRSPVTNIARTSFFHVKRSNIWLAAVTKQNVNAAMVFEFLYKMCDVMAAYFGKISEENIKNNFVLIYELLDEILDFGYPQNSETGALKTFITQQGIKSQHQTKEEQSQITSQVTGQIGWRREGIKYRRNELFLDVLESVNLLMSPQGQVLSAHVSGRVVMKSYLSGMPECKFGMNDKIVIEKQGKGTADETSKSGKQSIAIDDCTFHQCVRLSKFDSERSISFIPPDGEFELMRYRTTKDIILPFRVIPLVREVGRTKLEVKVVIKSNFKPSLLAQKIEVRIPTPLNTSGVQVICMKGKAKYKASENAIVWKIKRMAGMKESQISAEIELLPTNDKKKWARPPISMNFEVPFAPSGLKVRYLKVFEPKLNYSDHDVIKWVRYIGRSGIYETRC

Molecular target: Protease-Activated Receptor 2 (PAR2) (human (endogenous in HUVEC)) (UniProt P55085)
Test: co-IP; HUVEC lysates (untreated or Plg-treated) precleared, incubated with antibody to PAR1 or PAR2 or control IgG 4 h at 4 °C, Protein A/G PLUS beads overnight at 4 °C; immunoblot for AP2µ or ENO-1

Row | binding | Substance
1 | no binding | Enolase-1 (ENO-1) (from UniProt P06733 1-434)
2 | no binding | clathrin adaptor protein AP2µ (from UniProt Q96CW1 1-435)

No constants are given. Whether binding was seen depends on the method and setting. In cells and extracts the contact can be indirect.
